# Measurements as given in patent US20160046678A1 (ZYNGENIA, published 2016).
# Amino acid sequences for entries named in this document (tags omitted). Residues count along the entry.
# UniProt P05231, residues 30-212: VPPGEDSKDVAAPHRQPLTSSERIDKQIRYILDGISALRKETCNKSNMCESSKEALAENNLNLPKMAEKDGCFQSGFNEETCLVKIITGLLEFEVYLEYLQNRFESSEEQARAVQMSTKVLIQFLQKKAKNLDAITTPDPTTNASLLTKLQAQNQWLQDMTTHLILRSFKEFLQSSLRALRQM
# These are yes or no findings as the source states them, for the method shown. Some entries that bind do so weakly or less than the wild type.
# Biological target: IL6 (UniProt P05231)
# Assay: MRD identification, Example 48
row,Binder,binding
1,WWSPSYAWVMGQAGQGSFNEDCMWDPLLMDCAYSP [ILB542],binds
2,MPSTQINQWVGQAGQGSFNEDCMWDPLLMDCAYSP [ILB528],binds
3,IMWAGPIFPNGQAGQGSFNEDCMWDPLLMDCAYSP [ILB546],binds
4,WQNPWPVRFWGQAGQGSATGGSGSTASSFNEDCMWDPLLMDCAYSP [ILB553],binds
5,IERAYHSTRWGQAGQGSATGGSSFNEDCMWDPLLMDCAYSP [ILB548],binds
6,IKPSSHWWWQGQAGQGSATGGSSFNEDCMWDPLLMDCAYSP [ILB533],binds
7,VEHLSHSYVLGQAGQGSATGGSSFNEDCMWDPLLMDCAYSP [ILB537],binds
8,QDWHYPWVYQGQAGQGSFNEDCMWDPLLMDCAYSP [ILB550],binds
9,PLQKWEHIVNGQAGQGSFNEDCMWDPLLMDCAYSP [ILB551],binds
10,QMEVAHVVDLGQAGQGSATGGSSFNEDCMWDPLLMDCAYSP [ILB532],binds
11,YPMYYYQDISGQAGQGSFNEDCMWDPLLMDCAYSP [ILB545],binds
12,IMGMYEGFRTGQAGQGSFNEDCMWDPLLMDCAYSP [ILB547],binds
13,TDSWCHTLYWALQHCVAQE [ILB552],binds
14,GRWWMVQWVEGQAGQGSFNEDCMWDPLLMDCAYSP [ILB540],binds
15,VMEGHQFAQFGQAGQGSFNEDCMWDPLLMDCAYSP [ILB541],binds
16,ETELKKPAMQGQAGQGSFNEDCMWDPLLMDCAYSP [ILB549],binds
17,AWWQGQRPYNGQAGQGSFNEDCMWDPLLMDCAYSP [ILB535],binds
18,EYTNTSWKGHGQAGQGSATGGSSFNEDCMWDPLLMDCAYSP [ILB531],binds
19,DCSPDVHDCHGQAGQGSATGGSSFNEDCMWDPLLMDCAYSP [ILB538],binds
20,MEMVSAAWQEGQAGQGSFNEDCMWDPLLMDCAYSP [ILB543],binds
21,PPLWMSQMVPQGSATGGSSFNEDCMWDPLLMDCAYSP [ILB536],binds
22,TEKDPAQDWWGQAGQGSATGGSSFNEDCMWDPLLMDCAYSP [ILB529],binds
23,YEEQQVDEFGGQAGQGSATGGSGSTASSFNEDCMWDPLLMDCAYSP [ILB534],binds
24,YWWTIDYWPYGQAGQGSATGGSSFNEDCMWDPLLMDCAYSP [ILB544],binds
25,TYLQLWYFIQGQAGQGSFNEDCMWDPLLMDCAYSP [ILB539],binds

# Second part, the binder after the results:
row,binding,Binder
1,binds,SIYISYRQNHGQAGQGSATGGSGSTASSFNEDCMWDPLLMDCAYSP [ILB561]
2,binds,VYWQAMNQDYGQAGQGSFNEDCMWDPLLMDCAYSP [ILB569]
3,binds,FHLPIHWHYQGQAGQGSATGGSSFNEDCMWDPLLMDCAYSP [ILB565]
4,binds,FFDFFSFSNSGQAGQGSATGGSSFNEDCMWDPLLMDCAYSP [ILB580]
5,binds,DCAMWFMFKDQGQAGQGSATGGSSFNEDCMWDPLLMDCAYSP [ILB572]
6,binds,TYSWRDWGMYGQAGQGSFNEDCMWDPLLMDCAYSP [ILB567]
7,binds,ILB564 (peptide) peptide: FQGHWHIKKQGQAGQGSATGGSGSTASSGSGSSFNEDCMWDPLLMDCAYSP
8,binds,DGSHPIVVVTEWFGQAGQGSFNEDCMWDPLLMDCAYSP [ILB568]
9,binds,WWWDQHMLENGQAGQGSATGGSGSTASSFNEDCMWDPLLMDCAYSP [ILB578]
10,binds,EGYWRGPHWEGQAGQGSFNEDCMWDPLLMDCAYSP [ILB576]
11,binds,QSNGAHAWVWGQAGQGSATGGSGSTASSFNEDCMWDPLLMDCAYSP [ILB555]
12,binds,NQTQPKRPTDGQAGQGSFNEDCMWDPLLMDCAYSP [ILB587]
13,binds,YRMKWDFMLHGQAGQGSFNEDCMWDPLLMDCAYSP [ILB577]
14,binds,APGVAMWMFIGQAGQGSFNEDCMWDPLLMDCAYSP [ILB554]
15,binds,LIVLQPKNMVGQAGQGSFNEDCMWDPLLMDCAYSP [ILB566]
16,binds,QIQQFSFWVQGQAGQGSFNEDCMWDPLLMDCAYSP [ILB582]
17,binds,MTTMYHIIVLGQAGQGSATGGSGSTASSFNEDCMWDPLLMDCAYSP [ILB584]

row,binding,Binder
1,binds,VWTAFIQMNSGQAGQGSFNEDCMWDPLLMDCAYSP [ILB581]
2,binds,GCSMCHMMMVKWHRGQAGQGSFNEDCMWDPLLMDCAYSP [ILB585]
3,binds,PCHWAQQPCAGQAGQGSFNEDCMWDPLLMDCAYSP [ILB579]
4,binds,NNMHPLWPISGQAGQGSATGGSSFNEDCMWDPLLMDCAYSP [ILB573]
5,binds,LLVEFFKHTYGQAGQGSFNEDCMWDPLLMDCAYSP [ILB563]
6,binds,VPSLIYHTYYGQAGQGSATGGSSFNEDCMWDPLLMDCAYSP [ILB560]
7,binds,FWYSWNPQWDGQAGQGSFNEDCMWDPLLMDCAYSP [ILB574]
8,binds,PDSWCHTLYWDLLYCVNQE [ILB570]
9,binds,EQHVDWYWVPQGSFNEDCMWDPLLMDCAYSP [ILB586]
10,binds,TYYTHTAWDRGQAGQGSFNEDCMWDPLLMDCAYSP [ILB562]
11,binds,ECSCAKSRYANGQAGQGSFNEDCMWDPLLMDCAYSP [ILB558]
12,binds,ELGGRKSMLIGQAGQGSFNEDCMWDPLLMDCAYSP [ILB588]
13,binds,SCQFLEEYKDCRGQAGQGSATGGSSFNEDCMWDPLLMDCAYSP [ILB559]
14,binds,KWNQQWTIARGQAGQGSFNEDCMWDPLLMDCAYSP [ILB557]
15,binds,PDSSCHTLYWQLHHCARRE [ILB556]
16,binds,LFIPYMAQIWGQAGQGSFNEDCMWDPLLMDCAYSP [ILB583]
